In PubChem BioAssay AID504834 (National Center for Advancing Translational Sciences (NCATS), 2011):
The campaign covered roughly 320,000 compounds. About 22,000 (6.9%) were called active. Inconclusive results, whose numbers are uncertain, are shown with a selection of clear calls. Calls come from the whole dose curve; as a rule, active = well fitted inhibition curve with a large enough effect; inconclusive = small, poorly fitted or top-dose-only effect, or another doubt; inactive = no such curve, though single readings can be large or run the other way. Potencies beside an inconclusive call are fits to weak or partial responses and may not hold up.
Potency is the fitted concentration of half-maximal effect.

Assay: Primary qHTS for delayed death inhibitors of the malarial parasite plastid, 96 hour incubation
Settings: P. falciparum luciferase reporter growth; series mostly up to 28.7 µM
How it was run: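 Delayed-death screen, second-generation endpoint: infected erythrocytes, 2% hematocrit, 0.05% parasitemia final; 96 hours at 37 C, 5% CO2; luciferase detection reagent; luminescence decrease equals reduced growth.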
For `Cn1ccsc1=NC(=O)c1ccc(S(C)(=O)=O)c([N+](=O)[O-])c1`, the Potency was “inactive”.
With `C(#CCN1CCC(Cc2ccccc2)CC1)COCCOCc1ccccc1` the Potency was “inactive”.
With `CSc1ncc(C(=O)Nc2cccc(Cl)c2C)c(C)n1` the Potency was “inactive”.
For `COc1ccc(-c2nc3c(c4nnc(SC(C)C(=O)Nc5ccc(C)cc5)n24)COC(C)(C)C3)cc1` (centres undefined), the Potency was active: 2.62 µM.
In the case of `COc1ccc(NC(=O)CCc2nnc3ccc(NCc4ccco4)nn23)cc1OC`, the Potency is reported as inconclusive: 18.5 µM [inhibitor, single point].
In the case of `CC(=O)OCC(=O)[C@@]12OC(C)(C)O[C@@H]1C[C@H]1[C@H]3C[C@H](F)C4=CC(=O)C=C[C@@]4(C)[C@]3(F)[C@H](O)C[C@@]12C`, the Potency is reported as inconclusive: 2.03 µM [inhibitor, partial curve, poor fit].
In the case of `CCOc1ccc(CCNC(=O)COC(=O)Cc2ccc(F)cc2)cc1OCC`, the Potency is reported as inconclusive: 0.208 µM [inhibitor, full curve, poor fit].
In the case of `CCOc1ccc(CN(C)C(=O)CNC(=O)C2CCCCC2)cc1`, the Potency is reported as inconclusive: 0.0657 µM [inhibitor, full curve, poor fit].
For `Cc1cccc(N2CCN(c3cc(C)nc4nnnn34)CC2C)c1` (centres undefined), the Potency was inconclusive: 4.15 µM [inhibitor, single point].
With `CSC1=NCCN1C(=O)Cc1cccs1` the Potency was “inactive”.
In the case of `Cc1cccc(C)c1C(OCCN(C)C)C1CCCCC1` (centres undefined), the Potency is reported as inconclusive: 18.5 µM [inhibitor, single point].
With `COc1ccc2cc(C(=O)NCc3ccccc3)c(=O)oc2c1` the Potency was inconclusive: 3.7 µM [inhibitor, single point].
In the case of `CC(Oc1ccc2c3c(c(=O)oc2c1)CCCC3)C(=O)NCc1cccnc1` (centres undefined), the Potency is reported as inconclusive: 6.57 µM [inhibitor, partial curve].
For `Cc1ccc(CN2CCc3c(OCc4ccc(F)cc4)cccc3C2=O)cc1`, the Potency was inconclusive: 18.5 µM [inhibitor, single point].
With `CCc1ccc(/C=N/NC(=O)c2cc(-c3ccccc3OC)nc3ccccc23)s1` the Potency was active: 2.62 µM.
In the case of `CCOC(=O)[C@@H]1[C@H]2COc3cc(OC)ccc3[C@@H]2N2C(=O)N(c3ccc(C(F)(F)F)cc3)C(=O)[C@]12C`, the Potency is reported as active: 11.7 µM.
With `CCCCC1=CC2=C(c3ccco3)C(=O)C(C)(OC(=O)c3ccc(OC)cc3)C(=O)C2=CN1Cc1ccco1` (centres undefined) the Potency was inconclusive: 18.5 µM [inhibitor, single point].
In the case of `CC(=O)Nc1ccc(S(=O)(=O)N(Cc2cccnc2)Cc2cc3ccc(C)cc3[nH]c2=O)cc1`, the Potency is reported as inconclusive: 9.28 µM [inhibitor, single point].
With `CC(=O)N1CCN(c2ccc(NCc3ccc(Br)o3)cc2)CC1` the Potency was inconclusive: 11.7 µM [inhibitor, single point].
With `Cc1cc(C)c(NC(=O)CN(C)C(C)C(=O)N2CCc3ccccc32)c(C)c1` (centres undefined) the Potency was inconclusive: 11.7 µM [inhibitor, single point].
With `Cc1ccc[n+](CC(=O)Nc2ccc(N(C)C)cc2)c1` the Potency was active: 5.22 µM.
For `O=C(N/N=C\c1cn[nH]c1-c1ccccc1)c1cccs1`, the Potency was “inactive”.
For `CC(=O)Nc1ccc(S(=O)(=O)N[C@H](C(=O)O)C(C)C)cc1`, the Potency was “inactive”.
For `CC(=O)Nc1sc2c(c1CN1CCN(c3ccc(F)cc3)CC1)CCCC2`, the Potency was active: 9.28 µM.
For `Cc1cc(CN2CCC(N3CCC(C(=O)NC4CC4)CC3)CC2)cc(C)c1O`, the Potency was “inactive”.
For `CCOC(=O)N1CCN(C(=O)CCC(=O)N2CCOc3ccc(C)cc32)CC1`, the Potency was inconclusive: 1.04 µM [inhibitor, partial curve, poor fit].
With `CCn1c(SCC(=O)N2CCOCC2)nnc1-c1cccs1` the Potency was active: 11.7 µM.
For `N#Cc1cc(C(=O)c2cc(F)ccc2O)cn(Cc2ccccc2)c1=O`, the Potency was inconclusive: 10.4 µM [inhibitor, single point].
In the case of `CSCC[C@H](NC(=O)N1CCn2c1nc1ccccc12)C(=O)NC1CC1`, the Potency is reported as “inactive”.
With `C/C(CC(=O)Nc1ccccn1)=N\NC(=O)c1ccccc1` the Potency was “inactive”.
For `CC12CCC(C(=O)Nc3nc4ccccc4s3)(OC1=O)C2(C)C` (centres undefined), the Potency was “inactive”.
In the case of `CCC(C)c1ccc(NC(=S)NCCn2cc(Cl)cn2)cc1` (centres undefined), the Potency is reported as inconclusive: 0.0037 µM [inhibitor, partial curve, poor fit].
In the case of `O=C(CCCC(=O)OCC(F)(F)C(F)F)Nc1ccccc1F`, the Potency is reported as inconclusive: 1.17 µM [inhibitor, partial curve, poor fit].
With `Cc1cc(C)nc(N2CCCC(C(=O)NCCC3=CCCCC3)C2)n1` (centres undefined) the Potency was “inactive”.
With `O=C1C(=O)c2cccc3cccc1c23` the Potency was active: 6.57 µM.
With `Cc1cccc(N(CC(=O)NC2CCCCC2)C(=O)c2c(C)noc2C)c1` the Potency was inconclusive: 0.586 µM [inhibitor, full curve, poor fit].
For `COc1ccccc1C(=O)NN(C)C1=NS(=O)(=O)c2ccccc21`, the Potency was inconclusive: 18.5 µM [inhibitor, single point].
In the case of `COc1ccc(Nc2nc3c(C)cccc3cc2C#N)cc1`, the Potency is reported as “inactive”.
With `C[C@]1(C(=O)NCCCNc2ncc(C(F)(F)F)cc2Cl)C=C[C@@H](Cc2ccccc2)N1C(=O)c1ccccc1` the Potency was inconclusive: 18.5 µM [inhibitor, single point].
With `Cc1ccccc1Nc1nnc(C)c(=O)n1N` the Potency was inconclusive: 0.0026 µM [inhibitor, full curve, poor fit].
For `O=C(O)Cn1cnc2c(=S)nc[nH]c21`, the Potency was “inactive”.
In the case of `CC(C)=CC(=O)Nc1nnc(-c2ccc(F)cc2)s1`, the Potency is reported as “inactive”.
In the case of `CC[C@@H]1/C=C(\C)C[C@H](C)C[C@H](OC)[C@H]2O[C@@](O)(C(=O)C(=O)N3CCCC[C@H]3C(=O)O[C@H](/C(C)=C/[C@@H]3CC[C@H](Cl)[C@H](OC)C3)[C@H](C)[C@@H](O)CC1=O)[C@H](C)C[C@@H]2OC`, the Potency is reported as “inactive”.
For `COc1ccccc1-c1nc(C(=O)NCC2CCCO2)cc2c1[nH]c1ccccc12` (centres undefined), the Potency was active: 8.28 µM.
With `Cc1ccc(S(=O)(=O)Nc2nc3ccccc3nc2NCC2CCCO2)cc1C` (centres undefined) the Potency was “inactive”.
For `CNC(=O)/C(C#N)=C\c1ccc(CNS(=O)(=O)c2ccc(Cl)cc2)o1`, the Potency was inconclusive: 8.28 µM [inhibitor, partial curve].
With `COCc1ccc(C(=O)NC2CCCN(Cc3ccccc3F)C2)o1` (centres undefined) the Potency was inconclusive: 8.28 µM [inhibitor, partial curve, poor fit].
In the case of `Cc1ccc2c(CC(=O)NNC(=O)c3ccccc3)coc2c1`, the Potency is reported as “inactive”.
With `C[C@H](NC(=O)c1nc[nH]c1C(=O)NCCCCCNC(=O)OC(C)(C)C)C(=O)OC(C)(C)C` the Potency was inconclusive: 7.38 µM [inhibitor, partial curve, poor fit].
For `Cc1ccc(OCc2ccc(C(=O)Nc3c(C)nn(Cc4c(F)c(F)c(F)c(F)c4F)c3C)o2)c([N+](=O)[O-])c1`, the Potency was inconclusive: 0.522 µM [inhibitor, full curve, poor fit].
In the case of `C=CCN(c1ccccc1C(=O)NCC(=O)O)S(=O)(=O)c1ccc(C)cc1`, the Potency is reported as “inactive”.
For `CC1Cc2ccccc2N1C(=O)COC(=O)c1ccc(Cl)nc1` (centres undefined), the Potency was “inactive”.
For `COc1ccc(C2SCC(=O)Nc3c2c(C)nn3C2CCOC(C)(C)C2)cc1OC` (centres undefined), the Potency was “inactive”.
With `COc1ccccc1NC(=O)CCSc1nc(C)cc(C)n1` the Potency was inconclusive: 18.5 µM [inhibitor, single point].
With `COc1ccc(CNC(=O)C(C)n2nc(C)c3c(C)n(-c4ccccc4)nc3c2=O)c(OC)c1` (centres undefined) the Potency was active: 10.4 µM.
For `C/C(=N\NC(=O)C1CC1)c1ccc(Cl)cc1`, the Potency was active: 5.22 µM.
With `Oc1cccc2ccc(/C=C/c3ccccc3Br)nc12` the Potency was inconclusive: 18.5 µM [inhibitor, single point].
With `CC(=O)N1CC2(CC(=O)OC(C)C)CN(C(C)=O)CC(CC(=O)OC(C)C)(C1)C2=O` the Potency was active: 11.7 µM.
In the case of `COc1ccc(/C=C(/NC(=O)c2ccccc2)C(=O)N2CCCCC2)cc1`, the Potency is reported as inconclusive: 11.7 µM [inhibitor, single point].
For `Brc1ccc(-c2noc(COc3ccc4ccccc4c3)n2)o1`, the Potency was inconclusive: 9.28 µM [inhibitor, partial curve, poor fit].
For `Cc1cc(NCCO)c2cc(O)ccc2n1`, the Potency was inconclusive: 10.4 µM [inhibitor, single point].
In the case of `COc1ccc(N2C(=O)N3[C@H](c4ccc(Br)cc4)[C@@H]4C(=O)N(C(C)(C)C)C(=O)[C@@H]4[C@]3(Cc3ccccc3)C2=O)cc1`, the Potency is reported as inconclusive: 18.5 µM [inhibitor, partial curve, poor fit].
In the case of `COc1ccc(-n2c(SCC(=O)Nc3ccc(C(N)=O)cc3)nc3ccccc3c2=O)cc1OC`, the Potency is reported as inconclusive: 18.5 µM [inhibitor, single point].
With `CCNc1nc(NCC)n2c(SCC(=O)N(CC)C3CCCCC3)nnc2n1` the Potency was active: 7.38 µM.
With `O=C(O)c1ccc(Nc2nc(-c3ccccc3)c3ccccc3n2)cc1` the Potency was inconclusive: 1.47 µM [inhibitor, full curve, poor fit].
In the case of `O=C(c1ccc(S(=O)(=O)N2CCCC2)cc1)N1CCN(c2cccc(Cl)c2)CC1`, the Potency is reported as inconclusive: 18.5 µM [inhibitor, single point].
In the case of `O=S(=O)(c1ccc2ccccc2c1)N1CCN(C(=S)Nc2ccc(F)cc2)CC1`, the Potency is reported as inconclusive: 2.94 µM [inhibitor, single point].
In the case of `CCOC(=O)c1c(C)[nH]c(C)c1C(=O)CSc1nc2ccccc2[nH]1`, the Potency is reported as “inactive”.
In the case of `CC(=O)/C(=N\Nc1cccc(Cl)c1)Sc1nnc(-c2ccccc2)n1-c1ccccc1`, the Potency is reported as inconclusive: 18.5 µM [inhibitor, single point].
